From article PMC10457312
No constants are given. Whether binding was seen depends on the method and setting. Binding seen in cells or lysates may run through a third protein. Some results given as binding are weak or reduced against the parent protein; the word gives no strength. For some assays here: Where a sequence is shown, tags or fusion partners need not be part of it.

Amino acid sequences for entries named in this document (tags omitted).
UniProt P35222: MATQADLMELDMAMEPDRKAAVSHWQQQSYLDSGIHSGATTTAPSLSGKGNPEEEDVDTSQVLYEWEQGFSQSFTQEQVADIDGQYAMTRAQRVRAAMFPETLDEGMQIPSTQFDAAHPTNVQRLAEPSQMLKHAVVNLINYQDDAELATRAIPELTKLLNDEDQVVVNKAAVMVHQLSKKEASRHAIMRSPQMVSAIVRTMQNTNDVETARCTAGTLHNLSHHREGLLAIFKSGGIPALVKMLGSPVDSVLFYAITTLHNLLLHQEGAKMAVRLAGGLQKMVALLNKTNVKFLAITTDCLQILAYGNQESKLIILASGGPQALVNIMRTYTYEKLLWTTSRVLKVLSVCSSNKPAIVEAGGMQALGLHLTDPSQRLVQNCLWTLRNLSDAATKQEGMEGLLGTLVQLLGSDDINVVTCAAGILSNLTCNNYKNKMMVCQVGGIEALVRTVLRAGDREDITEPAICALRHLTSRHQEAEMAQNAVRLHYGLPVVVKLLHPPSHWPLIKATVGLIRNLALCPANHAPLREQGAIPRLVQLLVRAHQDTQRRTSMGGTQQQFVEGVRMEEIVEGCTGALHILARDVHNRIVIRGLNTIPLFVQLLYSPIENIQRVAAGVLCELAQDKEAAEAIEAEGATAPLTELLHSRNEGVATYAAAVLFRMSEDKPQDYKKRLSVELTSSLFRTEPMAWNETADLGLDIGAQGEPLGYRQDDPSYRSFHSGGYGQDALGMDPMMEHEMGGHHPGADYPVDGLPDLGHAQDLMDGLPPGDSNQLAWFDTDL

T1: Regenerating islet-derived protein 1-alpha (REG1α), Flag-tagged, exogenously expressed (human) (UniProt P05451)
T1 sequence: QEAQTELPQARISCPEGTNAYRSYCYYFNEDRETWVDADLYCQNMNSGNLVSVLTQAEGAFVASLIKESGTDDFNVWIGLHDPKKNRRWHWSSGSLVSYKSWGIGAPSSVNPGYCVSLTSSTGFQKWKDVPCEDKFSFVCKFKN

B1: Regenerating islet-derived protein 1-alpha (REG1α), endogenous (protein, UniProt P05451 23-166)
chain: T1 sequence

Experiments:
[1] = target: T1, Regenerating islet-derived protein 1-alpha (REG1α), Flag-tagged, exogenously expressed (human); test: co-IP; exogenous: anti-Flag antibody on lysate of CRC cells expressing Flag-REG1α, IgG as negative control; IP lysis buffer, antibody overnight at 4 °C, Protein A/G magnetic beads, western blot
[2] = target: β-catenin, endogenous (human (endogenous in CRC cells)) (UniProt P35222); test: co-IP; endogenous: anti-β-catenin antibody on CRC cell lysate, IgG as negative control; IP lysis buffer, antibody overnight at 4 °C, Protein A/G magnetic beads, western blot

| Molecule | binding [1] | binding [2] |
| --- | --- | --- |
| β-catenin, endogenous (from UniProt P35222 1-781) | binds | – |
| B1 | – | binds |
